# This is one part of the list. This data set is noisy: repeats of one test often differ as much as different tests do.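 The human kidney-derived cells carry a stably integrated construct of eight TEAD-binding elements driving luciferase, read by luminescence in a drug-repurposing library screen. A compound counts as a hit when its signal is more than five robust Z scores above the plate mean.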
# Test system: HEK293A TEAD-LUC reporter
# Assay: TEAD-luciferase reporter activity (YAP activation), robust Z score vs plate; higher = stronger YAP/TEAD activation
# Conditions: 24 h
Compound,TEAD-luciferase reporter activity (compound concentration: 200 nM),TEAD-luciferase reporter activity (compound concentration: 2 uM),TEAD-luciferase reporter activity (compound concentration: 10 uM)
CN[C@H](C(=O)N[C@H](C(=O)N(C)[C@H](/C=C(\C)C(=O)O)C(C)C)C(C)(C)C)C(C)(C)c1ccccc1 [taltobulin],inactive: -0.916,active: 5.51,active: 8.42
CO/N=C/C1=CCCN(C(=O)Oc2ccc(Cl)cc2)C1,inactive: -1.25,inactive: -2,inactive: 0.162
CCOC(=O)c1ccc2c(c1)NCc1cccc(OC)c1O2,inactive: 1.06,inactive: -0.125,inactive: 1.78
CCC(C)NS(=O)(=O)CCN1C(=O)c2ccccc2C1=O (stereo not drawn),inactive: 4.59,inactive: -2.11,inactive: -0.419
COc1cccc(-c2nc(CO[C@H]3CCC[C@@H](OCc4cccc(C)c4C(=O)O)C3)c(C)o2)c1,inactive: -0.862,inactive: 0.636,inactive: 1.59
CCCCC1(c2ccc3[nH]ccc3c2)CCNC1 (stereo not drawn),inactive: -1.31,inactive: -0.913,inactive: 1.84
COc1ccc2c(c1)c(CC(=O)O)c(C)n2C(=O)c1ccc(Cl)cc1 [Indomethacin],inactive: -1.39,,inactive: -0.059
COc1ccc2c(c1)c(CC(=O)O)c(C)n2C(=O)c1ccc(Cl)cc1 [indometacin (IV)],,inactive: -1.51,
COc1cc2ncnc(Nc3ccc(O)cc3)c2cc1OC,inactive: -0.373,inactive: -1.58,active: 8.53
O=C(Cc1ccccc1)Nc1ccc2cnn(CCN3CCCC3)c2c1,inactive: 3.09,inactive: -1.84,inactive: -0.005
CC(=O)CCCCN1C(=O)C2C(N=CN2C)N(C)C1=O (stereo not drawn),inactive: 1.21,inactive: -0.238,inactive: -0.953
COc1ccc([C@@H]2c3occc3C(=O)[C@@H]3COC(=O)[C@@H]23)cc1OC,inactive: -0.955,,inactive: -0.0571
COc1cc2c(cc1CN[C@H]1CCCN[C@H]1c1ccccc1)C(C)(C(F)(F)F)OCC2 (stereo partly drawn),inactive: -0.24,inactive: -0.613,inactive: 3.2
COc1ccccc1N1CCN(CCN(C(=O)C2CCCCC2)c2ccccn2)CC1,inactive: -0.377,inactive: 0.26,inactive: -2.05
CN1C(=O)c2ccccc2CC12CCCN(C(=O)c1ccc(Cl)cc1)C2 (stereo not drawn),inactive: -1.41,,inactive: 0.562
C#C[C@]1(OC(C)=O)CC[C@H]2[C@@H]3CCC4=CC(=O)CC[C@@H]4[C@H]3CC[C@@]21C,inactive: 0.28,,inactive: -0.314
C#C[C@]1(OC(C)=O)CC[C@H]2[C@@H]3CCC4=CC(=O)CC[C@@H]4[C@H]3CC[C@@]21C [Norethisterone acetate],,inactive: -1.49,

# A run of entries of the results above, for reference:
Compound,TEAD-luciferase reporter activity (compound concentration: 200 nM),TEAD-luciferase reporter activity (compound concentration: 2 uM),TEAD-luciferase reporter activity (compound concentration: 10 uM)
COc1ccc2c(c1)c(CC(=O)O)c(C)n2C(=O)c1ccc(Cl)cc1 [indometacin (IV)],,inactive: -1.51,
COc1cc2ncnc(Nc3ccc(O)cc3)c2cc1OC,inactive: -0.373,inactive: -1.58,active: 8.53

# Reference: the supplement of paper PMC10735217
